Assay results published in PMC8771830.
For at least one entry, the source does not settle the construct or the ends of the probe. Where cells or extracts were used, other partners may take part. For part of these data: At least one verdict was read from the data and is not stated in words by the source.

Amino acid sequences for entries named in this document (tags omitted). A change or cut given only in a name is not applied to a line headed by its entry.
UniProt Q08369: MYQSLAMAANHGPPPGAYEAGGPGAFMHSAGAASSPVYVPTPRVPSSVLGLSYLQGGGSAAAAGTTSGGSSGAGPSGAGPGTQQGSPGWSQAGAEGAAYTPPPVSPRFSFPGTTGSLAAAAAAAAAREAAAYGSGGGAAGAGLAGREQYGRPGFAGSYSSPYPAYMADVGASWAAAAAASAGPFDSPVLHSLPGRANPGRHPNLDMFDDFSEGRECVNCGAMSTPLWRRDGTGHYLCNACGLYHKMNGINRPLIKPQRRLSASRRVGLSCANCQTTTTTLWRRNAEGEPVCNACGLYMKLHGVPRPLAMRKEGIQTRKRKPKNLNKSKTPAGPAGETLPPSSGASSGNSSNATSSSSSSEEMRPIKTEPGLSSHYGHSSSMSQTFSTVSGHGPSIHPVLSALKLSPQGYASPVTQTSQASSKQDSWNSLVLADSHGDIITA

Key:
FLAG-GATA4 [1] = molecular target: FLAG-GATA4 (UniProt Q08369); assay: streptavidin DNA pull-down, Western blot; details: 20 mM Hepes pH 7.9, 1.5 mM MgCl2, 400 mM NaCl, 0.2 mM EDTA, 25% glycerol, 0.02% Tween, 0.3 mg/ml BSA, 0.1 mg/ml salmon sperm DNA, 2 h at 4 C, protein in a lysate after overexpression, protein details: FLAG, label: 5' biotin on sense strand
FLAG-GATA4 [2] = molecular target: FLAG-GATA4 (UniProt Q08369); assay: streptavidin DNA pull-down, anti-GATA4/FLAG Western blot; details: without p300 (p300 increased recruitment); 20 mM Hepes pH 7.9, 1.5 mM MgCl2, 400 mM NaCl, 0.2 mM EDTA, 25% glycerol, 0.02% Tween, 0.3 mg/ml BSA, 0.1 mg/ml salmon sperm DNA, 2 h at 4 C; protein in a lysate after overexpression; protein details: FLAG; label: 5' biotin on sense strand

Measured: binding result

CCTCTAGAGCCGGGTCTTATCTCCGGCTGCACGTTGC (double strand) [ET-1 probe]
binds: FLAG-GATA4 [1]; HA-p300 and GMP (GATA4 308-326 fragment) co-expressed, recruitment not suppressed | FLAG-GATA4 [1]; HA-p300 co-expressed (acetylation), recruitment increased | FLAG-GATA4 [2]
